The structures appear in SMILES notation.

Chains of the proteins cited; added tags and fusions are not shown.
UniProt P18901, whole entry: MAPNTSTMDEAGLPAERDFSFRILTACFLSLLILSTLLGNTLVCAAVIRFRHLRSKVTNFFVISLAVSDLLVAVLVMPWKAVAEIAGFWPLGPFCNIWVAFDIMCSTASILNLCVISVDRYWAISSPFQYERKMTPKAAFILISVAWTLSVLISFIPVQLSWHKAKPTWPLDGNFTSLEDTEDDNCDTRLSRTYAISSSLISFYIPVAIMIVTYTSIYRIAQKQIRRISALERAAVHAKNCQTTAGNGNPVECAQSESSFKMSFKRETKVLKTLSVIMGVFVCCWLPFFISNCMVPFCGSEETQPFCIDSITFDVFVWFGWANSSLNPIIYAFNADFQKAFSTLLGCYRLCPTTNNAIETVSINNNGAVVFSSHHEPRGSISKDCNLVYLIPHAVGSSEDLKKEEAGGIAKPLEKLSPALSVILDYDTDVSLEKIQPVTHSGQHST

From patent US4528290A, “Stimulating dopamine D-1 receptors” (Eli Lilly and Company, priority 1984, dated 1985) come the findings set out here.

The test addresses dopamine D-1 receptors (adenylate cyclase in rat striatal membrane) (Rattus norvegicus, UniProt P18901). The experiment in a line: biochemical. The conditions noted are these: read-out: Cyclic AMP Formation as a percent of control.
`CCCN1CCC[C@@H]2Cc3[nH]ncc3C[C@H]21` (relative stereo) [Racemate, trans-(±)-5-n-propyl-4,4a,5,6,7,8,8a,9-octahydro-1H(and 2H)-pyrazolo[4,3-g]quinoline]: the remaining activity at 50 µM was found to be 116 ± 13.3%. Consider `CCCN1CCC[C@@H]2Cc3[nH]ncc3C[C@H]21` [4aR, 8aR enantiomer, 4aR,8aR-5-n-propyl-4,4a,5,6,7,8,8a,9-octahydro-1H(and 2H)-pyrazolo[4,3-g]-quinoline], for which the remaining activity at 50 µM was found to be 114 ± 10.4%. For `CCCN1CCC[C@H]2Cc3[nH]ncc3C[C@@H]21` [4aS, 8aS enantiomer, 4aS,8aS-5-n-propyl-4,4a,5,6,7,8,8a,9-octahydro-1H(and 2H)-pyrazolo[3,4-g]quinoline] the value was 142 ± 9.3%.
